Test results: paper doi:10.1101/2024.07.29.605598 (bioRxiv, 2024)
No constants are given. Whether binding was seen depends on the method and setting. Blank lines part the entries; values can stand above or below the binder they belong to.

Legend:
Assay in all cases: SEC-MALS
[1] = biological target: Drosophila melanogaster Cno RA2 domain (amino acids 222-350) (Drosophila melanogaster) (UniProt Q24279)
[2] = biological target: Drosophila melanogaster GTPase Rap1 G12V (amino acids 1-180), GMPPNP-loaded (Drosophila melanogaster) (UniProt P08645)
[3] = biological target: Drosophila melanogaster Cno RA1 domain (amino acids 1-137) (Drosophila melanogaster) (UniProt Q24279)

binding [1]: no binding (tested: 200 µM)
B1: Drosophila melanogaster Cno RA2 domain (amino acids 222-350) (domain or fragment, UniProt Q24279 222-350, looked up)
chain: TRSISNPEAVMRRRRQQKLEKKLQQFRSRDGGPDTGGTLKIYGESLCQDVPYKTLLLSIRDCAQAVVREMLTKYGLEKADPLHYCLVQVNSDGTEYILDDDECPLSILMNHPTSRGSIMFHVRRRPADS

binding [2]: no binding (tested: 200 µM)
B2: Drosophila melanogaster GTPase Rap1 G12V (amino acids 1-180), GMPPNP-loaded (enzyme, UniProt P08645 1-180, looked up)
chain: MREYKIVVLGSVGVGKSALTVQFVQCIFVEKYDPTIEDSYRKQVEVDGQQCMLEILDTAGTEQFTAMRDLYMKNGQGFVLVYSITAQSTFNDLQDLREQILRVKDTDDVPMVLVGNKCDLEEERVVGKELGKNLATQFNCAFMETSAKAKVNVNDIFYDLVRQINKKSPEKKQKKPKKSL

binding [3]: no binding (tested: 200 µM)
B3: Drosophila melanogaster Cno RA1 domain (amino acids 1-137) (domain or fragment, UniProt Q24279 1-137, looked up)
chain: MSHDKKMLDREAVRSVIQQWNANRLDLFALSEPDENLLFHGVMRFYFQDAGQKVATKCIRVASDATVTDVIDTLIEKFRPDMRMLSVPNYALYEVHANGEERRLNADEKPLLVQLNWHIDDREGRFLLKNIDQKTTP
